No constants are given. Whether binding was seen depends on the method and setting. Binding calls can cover weak binding; strength is not graded here. Each block holds one binder with its values, some of them ahead of it.
Target: GST-hMSTN 1-100aa (human)
Assay: Western blot

binding: binds
B3: MST1572 (antibody, human IgG1, kappa, V domains shown)
VH: QSVEESGGRLVTPGTPLTLTCTVSGFSLSSYAMSWVRQAPGKGLEWIGIIYGVGSTYYASWAKGRFTISKTSTTVDLKIASPTTEDTATYFCARDDYGWGYTNLWGPGTLVTVSS
VL: QVLTQTPSSVSAAVGGTVTINCQSSQSVYNNNYLAWFQQKPGQPPKLLIYDASKLASGVPSRFKGSGSGTQFTLTISGVQCDDAATYYCQGSYYSSGWYRAFGGGTKVEIKR

binding: binds
B4: MST1573 (antibody, human IgG1, kappa, V domains shown)
VH: QSVEESGGRLVTPGTPLTLTCTVSGIDLSSSSMIWVRQAPGEGLKYIGFISKSGYTYYASWAKGRFTISKTSTTVDLKITSPTTEDTATYFCARGGYSGDWDYFTLWGPGTLVTVSS
VL: DIVMTQTPASVEAAVGGTVTIKCQASESIGNALAWYQQKPGQPPKLLIYGAFNLESGVPSRFRGSGSGTEYTLTISDLECDDAATYYCQGYFWSSSTIYAFWAFGGGTKVEIKR

The remaining lines, values behind:

B1: MST1032 (as used in Example 26) (antibody, V domains shown)
VH: QSLEESGGRLVTPGGSLTVTCRVSGIDLSSYDISWVRQAPGKGLEWIGIISYAGSTYYASWAKGRFTISKTSTTVDLKMTSLTTEDTATYFCARGVPAYSTGGDLWGPGTLVTVSS
VL: AQVLTQTASSVSAAVGGTVTINCQSSQSVYDNNWLSWFQQKPGQPPKLLIYWASTLASGVPSRFKGSGSGTQFTLTISDLECDDAATYYCAGGYGGGLYAFGGGTKVEIK
binding: binds

B2: MST1538 (antibody, human IgG1, kappa, V domains shown)
VH: QSLEESGGGLVKPGGTLTLTCKASGIDFSSYYYMCWVRQAPGKGLEWIACIYAGISGSTYYASWAKGRFTISKTSSTTVTLQMTSLTAADTATYFCARDPYHFDYGSLWGPGTLVTVSS
VL: ALVMTQTPASVSAAVGGTVTINCQASQSVYGGNELSWYQQEPGQPPKLLIYSASKLASGVPSRFKGSGSGTQFTLTISGVQCDDAAAYYCAGYRTYSDDDNAFGGGTKVEIKR
binding: binds

Reference: patent publication EP4755449A2
